# Primary screen of a compound library

Sequences of proteins named here, by UniProt entry; tags and fusion partners are left off. Residues count along the entry.
UniProt A4I591, 1-473: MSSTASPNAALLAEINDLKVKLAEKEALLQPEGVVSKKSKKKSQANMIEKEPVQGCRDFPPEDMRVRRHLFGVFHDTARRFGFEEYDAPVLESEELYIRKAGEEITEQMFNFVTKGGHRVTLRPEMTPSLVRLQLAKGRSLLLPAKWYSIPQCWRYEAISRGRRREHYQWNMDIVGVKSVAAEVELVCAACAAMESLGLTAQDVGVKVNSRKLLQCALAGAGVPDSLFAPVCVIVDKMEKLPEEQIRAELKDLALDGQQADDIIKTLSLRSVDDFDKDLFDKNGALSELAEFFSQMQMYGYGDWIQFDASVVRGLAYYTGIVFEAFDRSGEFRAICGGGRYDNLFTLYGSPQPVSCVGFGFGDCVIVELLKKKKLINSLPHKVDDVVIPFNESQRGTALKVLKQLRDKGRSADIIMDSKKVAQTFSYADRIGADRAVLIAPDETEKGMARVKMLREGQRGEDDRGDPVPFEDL

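Histidine-tRNA ligase, Leishmania infantum (UniProt A4I591). Enzyme assay of histidyl-tRNA synthetase; the read-out is not stated. Concentration: 30 µM. Direction is inferred from retests: higher values go with stronger inhibition. The assay is labelled LdHisRS but filed under L. infantum. Size under these conditions: about 69,000 compounds, about 410 of them at 50% or above in at least one test.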

Results are given as percent effect. How 0% and 100% were set is not recorded. Most values in the screen are low, and negative values occur. Compounds were drawn at random from those tested, without regard to their results.

| Compound | percent effect |
|---|---|
| `N#CCCN(CC1CCOC1)Cn1ccc(-c2cccs2)n1` (stereo not shown) | -8.571 |
| `COc1ccc2c(=O)ccn(CC(=O)O)c2c1` | 3.571 |
| `Cc1ccc(O)c(CNCC2CCCN2c2cccnn2)n1` (stereo not shown) | 16.07 |
| `COCCN1C(=O)[C@]2(CC[C@@H]3CN(C(=O)NC(C)C)C[C@@H]32)N=C1C` | 22.22 |
| `COCCC1(CNC(=O)NCC2CCCN(C)C2)CCCC1` (stereo not shown) | -1.724 |
| `O=C1CCC(C(=O)NCCOc2cccc(Cl)c2Cl)CN1` (stereo not shown) | 16.96 |
| `CC(C)[C@@H]1CN(Cc2cnc(C3CCCCC3)nc2)C[C@H]1C(=O)O` | 13.7 |
| `Cc1nnc(CN(C)C2CCN(c3cccc(-c4cscn4)c3)CC2)o1` | 7.527 |
| `COCCOC(=O)N1CCC(c2nccn2CC2CC2)CC1` | 13.6 |
| `COc1cccc(-n2nnc(C(=O)N3CCCC3)c2C)c1` | 27.66 |
| `O=C(O)c1ccc(Cc2cccc(F)c2)nc1` | 9.929 |
| `CCn1c(C2CCNCC2)nn(CCn2cncn2)c1=O` | 24.71 |
| `O=c1c(NCCNCCO)c(N2CCN(Cc3ccccc3)CC2)c1=O` | 7.895 |
| `CN1CCCc2c1nc1c(c2N)CCC1` | -4.762 |
| `CCOC1COC2(CCN(Cc3ccc(C)cc3)CC2)C1` (stereo not shown) | 7.692 |
| `CSCC1CCCN1CCc1ccncc1` (stereo not shown) | 14.52 |
| `CNC(=O)CS(=O)(=O)C1CCN(S(=O)(=O)c2cccnc2)CC1` | 4.959 |
| `CC(=O)c1ccc(S(=O)(=O)N2CCCC2CN2CCCC2)cc1` (stereo not shown) | 8 |
| `CCc1nc2n(n1)CC(NCC(=O)Nc1ccc(Cl)cn1)CC2` (stereo not shown) | 1.124 |
| `CCCNC(=O)Cn1cc(-c2ccccc2)cn1` | 10.81 |
| `Cc1cc(-c2cnc(NC3CC3)nc2-c2ccco2)on1` | 11.46 |
| `CC(C)(C)CN[C@@H]1CO[C@H](CNC(=O)c2ccncc2)[C@H]1O` | 16.22 |
| `Cc1noc(C2CCC3(CCN(C(=O)C4=CCCCC4)CC3)O2)n1` (stereo not shown) | 18.87 |
| `Cc1ncn(-c2cc(N3CCN(S(C)(=O)=O)CC3)ncn2)c1C` | 0.8547 |
| `COc1ccc(C(=O)NC2CC2)c(OC2CCN(C(C)CO)CC2)c1` (stereo not shown) | 2.083 |
| `Cc1ccc(CN2CCCC(c3nn(C)c4nccnc34)C2)s1` (stereo not shown) | 1.042 |
| `CCCC(=O)NC(C(=O)OC)c1cc(F)ccc1F` (stereo not shown) | 3.846 |
| `Cc1n[nH]c(C2CN(C(=O)c3ccnc(C4CC4)n3)CCO2)n1` (stereo not shown) | 10.67 |
| `COCC1COCCC12CCN(C(=O)CCOc1ccccc1)CC2` (stereo not shown) | 17.31 |
| `CN(Cc1nc(C2CC2)no1)C(=O)c1cccc(CC2CCNCC2)c1` | 8.73 |
| `NC(=O)CN1CCC(NC(=O)Nc2nccs2)CC1` | 6.383 |
| `Cc1ccc(CN2CCc3ncc(CNC(=O)C4CCC4)n3CC2)o1` | 18.06 |
| `COC(=O)C1CN(Cc2nc(-c3ccccc3)cs2)C[C@@H](C)O1` (stereo partly shown) | 11.71 |
| `Cc1cc(CN2CCC(CNS(=O)(=O)c3ccc(Br)s3)CC2)c(C)o1` | 23.66 |
| `CC(C)(C)c1nc(CN(Cc2cccs2)CC2CCCO2)no1` (stereo not shown) | 13.04 |
| `Cn1cncc1CN1CCCC1c1cncc(Oc2ccc(F)cc2)n1` (stereo not shown) | 17.24 |
| `O=C(NCc1nc(NC2CCCC2)c2cc(Cl)ccc2n1)c1cscn1` | 15.05 |
| `CC(C)(C)c1cnc(CN2CCC(NC(=O)NC3CCCCC3)CC2)o1` | 13.16 |
| `CC(C)[C@H]1CN(c2cnccn2)C[C@@H]1NC(=O)C1(C#N)CCOCC1` | 4.762 |
| `O=c1c(NCCOCCO)c(N2CCN(c3ccccc3)CC2)c1=O` | 15.79 |
| `CCOC(C)c1nccn1CCC(=O)Nc1cc(C)on1` (stereo not shown) | -10.11 |
| `COc1ccc(CCN2C(=O)O[C@@H]3CN(C4CCOCC4)C[C@@H]32)cc1` | 0 |
| `CCNC(=O)[C@@H]1C[C@H](N)CN1C(=O)Cc1cc(C)ccc1C` | 4.167 |
| `CCOc1cccc(C(=O)N(CCC#N)Cc2ccccn2)c1` | 9.821 |
| `CC(C)N1CCN(c2ccc3ccc(C(=O)NC4CCCC4)cn23)CC1` | 38.46 |
| `CC(C)c1cc(CN2CCC(CC(=O)O)CC2)no1` | 8.247 |
| `CC(C)(C)C(=O)NCCC(=O)NS(=O)(=O)c1cccnc1` | -1.587 |
| `CC(C)(C)c1ccn(C2(C(=O)O)CCN(c3ccncc3F)CC2)n1` | -0.5236 |
| `O=S(=O)(NC[C@H]1OC[C@@H](NCc2cccs2)[C@@H]1O)c1ccccc1` | 1.351 |
| `CCS(=O)(=O)N1C[C@@H](O)[C@H](N2CCc3ccccc3C2)C1` | 15.6 |
| `CCc1[nH]c(C2(N)CCCC2)nc(=O)c1C` | -9.735 |
| `CC1Cc2ccccc2N1Cc1occc1C(=O)NCC(=O)N(C)C` (stereo not shown) | 11.29 |
| `COc1ccc(-c2nnc([C@H]3CCN(CC(C)(C)C)C3)o2)cc1` | -20.27 |
| `Cc1noc(C2CCCN(Cn3cc(Br)cn3)C2)n1` (stereo not shown) | 19.47 |
| `O=C(C1CCN(c2ccnc3ccc(Br)cc23)CC1)N1CCOCC1` | 18.75 |
| `COC(=O)c1ccc(CNC(=O)Nc2ccc(=O)n(C)c2)cc1` | 120 |
| `N#CC1(NC(=O)c2ccc(-c3nc(C4CC4)n[nH]3)cc2)CC1` | 19.51 |
| `CCCN(CC1COc2ccccc2O1)C(=O)c1ncoc1CC` (stereo not shown) | -17.58 |
| `CCn1nc2c(cc1=O)CN(CCOc1cccc(C#N)c1)CC2` | 19.05 |
| `CN1CC[C@H]2OCC[C@@H](C(=O)NCc3ccco3)[C@@H]2C1` | -2.752 |
| `Cc1ccccc1N1CCCN(C(=O)CCCn2ccnc2C)CC1` | 24 |
| `CS(=O)(=O)NCCN1CCCC1c1noc(C2CC2)n1` (stereo not shown) | 11.86 |
| `CCOC(=O)N1CCN(CC(=O)Nc2ccc(F)cc2Cl)CC1` | 12.9 |
| `Cc1ccc(-c2ccsc2C(=O)NC2CCS(=O)(=O)C2)cc1` (stereo not shown) | 9.091 |
| `O=C1OCCN1Cc1cccc(C(F)(F)F)c1F` | 11.48 |
| `CN(C)C(=O)NCc1nnn2c1CN(CC1CCOCC1)CCC2` | 10.53 |
| `CNC(=O)c1cccc(C2CNCCN2C(=O)c2cccc(F)c2)c1` (stereo not shown) | 17.71 |
| `CCc1ccc(C2CC(=O)Nc3c2c(=O)n(C)c2ncnn32)cc1` (stereo not shown) | 8.276 |
| `O=C(c1ccco1)N1CC[C@H]2[C@H]1CCN2CC1CCOCC1` | 6.569 |
| `CCSCC(C)NCc1ccccc1-n1ccnc1` (stereo not shown) | 13.95 |
| `O=C(c1ccoc1)N1CCC(O)(C(F)(F)F)CC1` | 7.447 |
| `CC(NCc1cccc(COC2CCCC2)c1)c1cnn(C)c1` (stereo not shown) | -1.176 |
| `CCC(O)CN1CCN(C(=O)c2ccc(N(C)C)nn2)CC1` (stereo not shown) | 0 |
| `Cn1c2c(ccc1=O)CC(NC(=O)Cc1ccsc1)CC2` (stereo not shown) | 21.37 |
| `CN(CC1CC1)C(=O)CN1CCCC1c1cnn(C)c1` (stereo not shown) | 16.13 |
| `CNC(=O)c1noc(Cn2ncc3ccccc3c2=O)n1` | 7.042 |
| `O=C(NCc1cncc2c1CCN(Cc1ccoc1)C2)C1CC1` | 24.32 |
| `CCN1CCOC(CNCc2cccc(OCc3ccccn3)c2)C1` (stereo not shown) | 0 |
| `CN(Cc1n[nH]c2c1CCCC2)c1nc(C2CC2)nc2c1CCNCC2` | 8.197 |
| `Cc1nc(C)n(CC2CCCN2CC(=O)Nc2ccncc2)n1` (stereo not shown) | 20.48 |
| `Cc1cccc(CN2C[C@@H]3CN(C(=O)NC(C)C)C[C@@H]3C2=O)n1` | 9.615 |
| `CN1CCOC(C(=O)Nc2nc(-c3ccccc3F)n[nH]2)C1` (stereo not shown) | 14.47 |
| `O=C(CCN1CCC(C(=O)c2cc(F)ccc2F)CC1)NC1CC1` | -2.857 |
| `CC(=O)N1CCN(C(C)c2nnc(CC(C)C)o2)CC1` (stereo not shown) | 6.25 |
| `CO[C@H]1CCN(S(=O)(=O)c2cn(C)cn2)[C@H]1Cc1ccncc1` | 16.67 |
| `COC(=O)[C@H](C)NC(=O)c1cc(-c2cccc(Cl)c2)no1` | 17.14 |
| `CNC(=O)CCc1cc(C)nc(C2CCN(c3ccccc3)CC2)c1` | 18.71 |
| `CCN(C)C(=O)c1cccc(S(=O)(=O)NCCc2csc(N)n2)c1` | 17.78 |
| `CC(C)C1CN(S(=O)(=O)c2ccc(C#N)cc2)CCS1` (stereo not shown) | 9.524 |
| `Cc1ccc(CC(=O)NCC(O)c2cc(Cl)cc(Cl)c2)cn1` (stereo not shown) | 26.76 |
| `Cc1sc(NC(=O)CN2CCCC(c3ncc[nH]3)C2)c(C)c1C` (stereo not shown) | 13.98 |

For reference, 7 entries once more:

{"compound": "CC(C)c1cc(CN2CCC(CC(=O)O)CC2)no1", "percent effect": 8.247}
{"compound": "CCCC(=O)NC(C(=O)OC)c1cc(F)ccc1F", "stereo": "stereo not shown", "percent effect": 3.846}
{"compound": "Cn1c2c(ccc1=O)CC(NC(=O)Cc1ccsc1)CC2", "stereo": "stereo not shown", "percent effect": 21.37}
{"compound": "O=c1c(NCCOCCO)c(N2CCN(c3ccccc3)CC2)c1=O", "percent effect": 15.79}
{"compound": "Cc1ccc(-c2ccsc2C(=O)NC2CCS(=O)(=O)C2)cc1", "stereo": "stereo not shown", "percent effect": 9.091}
{"compound": "Cc1ccc(O)c(CNCC2CCCN2c2cccnn2)n1", "stereo": "stereo not shown", "percent effect": 16.07}
{"compound": "Cc1ccc(CN2CCCC(c3nn(C)c4nccnc34)C2)s1", "stereo": "stereo not shown", "percent effect": 1.042}

From ChEMBL document CHEMBL3988442, “University of Dundee, Small-Polar-MMV Screening Library” (2021).